Measured values taken from patent US20050261195 (published 2005).

Assay: peptide synthesis
Conditions: acetate

Substance: 5-oxo-L-prolyl-L-histidyl-L-tryptophyl-L-seryl-L-tyrosyl-D-leucyl-L-leucyl-L-arginyl-N-ethyl-L-prolinamide
- step yield (late stage modification step): 90.9%
- step yield (purification step, run 1): 86.3%
- step yield (purification step, run 2): 87.8%
- step yield (purification step, run 3): 98.9%
- step yield (purification step, run 4): 86.4%
